Results on two molecules are retold here after article PMC12835413, “Allosteric zinc inhibition and interdomain regulation govern the catalytic mechanism of the E3-independent ubiquitin-conjugating enzyme hUBE2O” (The Journal of Biological Chemistry, 2025).

Where a chain is given by its changes, count along the chain named. In names and notes the source's numbering stands. Results are given in words; binding and its absence hold for the method and conditions named. In cells and extracts the contact can be indirect. Some entries that bind do so weakly or less than the wild type.

Experiment [1] has as its target hUBE2O H939A mutant (human) (UniProt Q9C0C9). Nature of the experiment: co-IP; lysates of transfected cells (0.5% NP40, 150 mM NaCl, 50 mM Tris pH 8.0, 1 mM EDTA, 10% glycerol), anti-Flag M2 affinity gel 90 min at 4 °C, 3 washes, immunoblotting.
The target of experiment [2] is hUBE2O H1130A mutant (human) (UniProt Q9C0C9). The description is as above.

B1: hUBE2O H939A mutant (enzyme, UniProt Q9C0C9 1-1292)
chain: MADPAAPTPAAPAPAQAPAPAPEAVPAPAAAPVPAPAPASDSASGPSSDSGPEAGSQRLLFSHDLVSGRYRGSVHFGLVRLIHGEDSDSEGEEEGRGSSGCSEAGGAGHEEGRASPLRRGYVRVQWYPEGVKQHVKETKLKLEDRSVVPRDVVRHMRSTDSQCGTVIDVNIDCAVKLIGTNCIIYPVNSKDLQHIWPFMYGDYIAYDCWLGKVYDLKNQIILKLSNGARCSMNTEDGAKLYDVCPHVSDSGLFFDDSYGFYPGQVLIGPAKIFSSVQWLSGVKPVLSTKSKFRVVVEEVQVVELKVTWITKSFCPGGTDSVSPPPSVITQENLGRVKRLGCFDHAQRQLGERCLYVFPAKVEPAKIAWECPEKNCAQGEGSMAKKVKRLLKKQVVRIMSCSPDTQCSRDHSMEDPDKKGESKTKSEAESASPEETPDGSASPVEMQDEGAEEPHEAGEQLPPFLLKEGRDDRLHSAEQDADDEAADDTDDTSSVTSSASSTTSSQSGSGTSRKKSIPLSIKNLKRKHKRKKNKITRDFKPGDRVAVEVVTTMTSADVMWQDGSVECNIRSNDLFPVHHLDNNEFCPGDFVVDKRVQSCPDPAVYGVVQSGDHIGRTCMVKWFKLRPSGDDVELIGEEEDVSVYDIADHPDFRFRTTDIVIRIGNTEDGAPHKEDEPSVGQVARVDVSSKVEVVWADNSKTIILPQHLYNIESEIEESDYDSVEGSTSGASSDEWEDDSDSWETDNGLVEDEHPKIEEPPIPPLEQPVAPEDKGVVISEEAATAAVQGAVAMAAPMAGLMEKAGKDGPPKSFRELKEAIKILESLKNMTVEQLLTGSPTSPTVEPEKPTREKKFLDDIKKLQENLKKTLDNVAIVEEEKMEAVPDVERKEDKPEGQSPVKAEWPSETPVLCQQCGGKPGVTFTSAKGEVFSVLEFAPSNASFKKIEFQPPEAKKFFSTVRKEMALLATSLPEGIMVKTFEDRMDLFSALIKGPTRTPYEDGLYLFDIQLPNIYPAVPPHFCYLSQCSGRLNPNLYDNGKVCVSLLGTWIGKGTERWTSKSSLLQVLISIQGLILVNEPYYNEAGFDSDRGLQEGYENSRCYNEMALIRVVQSMTQLVRRPPEVFEQEIRQHFSTGGWRLVNRIESWLETHALLEKAQALPNGVPKASSSPEPPAVAELSDSGQQEPEDGGPAPGEASQGSDSEGGAQGLASASRDHTDQTSETAPDASVPPSVKPKKRRKSYRSFLPEKSGYPDIGFPLFPLSKGFIKSIRGVLTQFRAALLEAGMPECTEDK
B1: the binding entry in experiment [1] is recorded as “binds”.

B2: hUBE2O H1130A mutant (enzyme, UniProt Q9C0C9 1-1292)
chain: B1 chain with A939H, H1130A
Regarding B2, the binding result in experiment [2] was “binds”.
